# Test results as given in the supplement of paper PMC4604168 (melanoma cell lines).
# Some of the results follow. Many values rest on one well or one pass, so single values are uncertain.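 Imaging used 1,536-well plates; nuclei positive for cleaved PARP by antibody were divided by total DNA-stained nuclei to yield the apoptosis fraction. Doses for screening kept most cells viable, and cell lines differ markedly in resting and induced cleaved-PARP levels.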
# Legend:
# Experiment in all cases: cleaved PARP positive nuclei fraction relative to DMSO control; melanoma cells; higher = more apoptosis
# Conditions in all cases: library dose: low library concentration; 72 h
# CBRC034 = tested on: CBRC034 (line from a melanoma biopsy)
# COLO792 = tested on: COLO792
# COLO800 = tested on: COLO800
# COLO829 = tested on: COLO829
# G361 = tested on: G361
# IPC-298 = tested on: IPC-298
# IST-MEL1 = tested on: IST-MEL1
# LB2518-MEL = tested on: LB2518-MEL
# LOXIMVI = tested on: LOXIMVI
# MEL-HO = tested on: MEL-HO
SMILES,cleaved PARP positive nuclei fraction (CBRC034) [%],cleaved PARP positive nuclei fraction (COLO792) [%],cleaved PARP positive nuclei fraction (COLO800) [%],cleaved PARP positive nuclei fraction (COLO829) [%],cleaved PARP positive nuclei fraction (G361) [%],cleaved PARP positive nuclei fraction (IPC-298) [%],cleaved PARP positive nuclei fraction (IST-MEL1) [%],cleaved PARP positive nuclei fraction (LB2518-MEL) [%],cleaved PARP positive nuclei fraction (LOXIMVI) [%],cleaved PARP positive nuclei fraction (MEL-HO) [%]
"Cn1cncc1[C@@](N)(c1ccc(Cl)cc1)c1ccc2c(c1)c(-c1cccc(Cl)c1)cc(=O)n2C [tipifarnib] + Cc1cc(SCc2sc(-c3ccc(C(F)(F)F)c(F)c3)nc2C)ccc1OCC(=O)O [GW0742] (first compound 0.01 µM, partner dose 2 µM)",41.8,167,395,35,93.3,64.2,42.6,210,105,–
"Cc1cc([N+](=O)[O-])ccc1NS(=O)(=O)c1cc(Cl)ccc1Cl + O=C(Oc1ccc([N+](=O)[O-])cc1)N1CCC(C(O)(c2ccc3c(c2)OCO3)c2ccc3c(c2)OCO3)CC1 [JZL184] (first compound 1 µM, partner dose 1 µM)",1560,102,103,109,70.1,62,98.9,43.1,136,–
"CCc1ccc(CCOc2ccc(CC3SC(=O)NC3=O)cc2)nc1 (centres undefined) [pioglitazone] + C/C(O)=C(\C#N)C(=O)Nc1cc(Br)ccc1Br [LFM-A13] (first compound 2 µM, partner dose 2 µM)",47.2,83.1,127,83.1,188,42.9,185,99.5,77.4,–
"CC(C)(C)c1cnc(CSc2cnc(NC(=O)C3CCNCC3)s2)o1 + O=C(Oc1ccc([N+](=O)[O-])cc1)N1CCC(C(O)(c2ccc3c(c2)OCO3)c2ccc3c(c2)OCO3)CC1 [JZL184] (first compound 0.01 µM, partner dose 1 µM)",117,83,185,105,120,82,126,87.4,38.6,–
"OCCn1cc(-c2cnc3nnn(Cc4ccc5ncccc5c4)c3n2)cn1 + O=C(Oc1ccc([N+](=O)[O-])cc1)N1CCC(C(O)(c2ccc3c(c2)OCO3)c2ccc3c(c2)OCO3)CC1 [JZL184] (first compound 1 µM, partner dose 1 µM)",44.6,141,145,89.3,38.2,42.2,118,154,7.95,–
"Cc1cc(SCc2sc(-c3ccc(C(F)(F)F)c(F)c3)nc2C)ccc1OCC(=O)O + CCCCCCCCCCCC1=C(O)C(=O)C=C(O)C1=O [Embelin] (first compound 2 µM, partner dose 1.2 µM)",62.6,82.9,86.1,132,91.3,84.7,133,319,63.5,–
"O=C(O)c1ccc(-c2c[nH]c3ncc(-c4ccccc4)cc23)cc1C1CCCC1 + O=C(Oc1ccc([N+](=O)[O-])cc1)N1CCC(C(O)(c2ccc3c(c2)OCO3)c2ccc3c(c2)OCO3)CC1 [JZL184] (first compound 0.16 µM, partner dose 1 µM)",102,48.1,27.8,101,38.9,81.2,55.8,137,43.2,–
"CN(NC(=O)CC(=O)NN(C)C(=S)c1ccccc1)C(=S)c1ccccc1 + O=C(Oc1ccc([N+](=O)[O-])cc1)N1CCC(C(O)(c2ccc3c(c2)OCO3)c2ccc3c(c2)OCO3)CC1 [JZL184] (first compound 0.006 µM, partner dose 1 µM)",122,173,238,119,138,55.2,178,92.9,20.5,–
"O=C(Nc1cccc(Cl)c1)Nc1ncc(CCNc2ncnc3ccsc23)s1 + Cc1cc(SCc2sc(-c3ccc(C(F)(F)F)c(F)c3)nc2C)ccc1OCC(=O)O [GW0742] (first compound 0.0008 µM, partner dose 2 µM)",297,100,74.8,67.4,52.3,158,65.4,115,58.6,–
"CC1(C)NC(=O)N(c2ccc([N+](=O)[O-])c(C(F)(F)F)c2)C1=O [nilutamide] + O=C(Oc1ccc([N+](=O)[O-])cc1)N1CCC(C(O)(c2ccc3c(c2)OCO3)c2ccc3c(c2)OCO3)CC1 [JZL184] (first compound 1 µM, partner dose 1 µM)",170,62.6,86.6,80.8,100,136,61,158,33.7,–
"CCN(CC)CCCCNc1ncc2cc(-c3cc(OC)cc(OC)c3)c(NC(=O)NC(C)(C)C)nc2n1 + O=C(Oc1ccc([N+](=O)[O-])cc1)N1CCC(C(O)(c2ccc3c(c2)OCO3)c2ccc3c(c2)OCO3)CC1 [JZL184] (first compound 0.1 µM, partner dose 1 µM)",59.7,82.9,178,121,180,149,75.7,74.7,72.3,–
"C[As](C)SC[C@H](NC(=O)CC[C@H](N)C(=O)O)C(=O)NCC(=O)O [Darinaparsin] + COc1ccc2c(c1)CCC1C2CCC2(C)C(NCCCCCCN3C(=O)C=CC3=O)CCC12 [U73122] (first compound 0.4 µM, partner dose 0.4 µM)",90.9,79.3,63.5,200,73,54.4,53.3,81.5,55,–
"CN(C)S(=O)(=O)c1ccc2c(c1)/C(=C/c1cc3c([nH]1)CCCC3)C(=O)N2 + Cc1cc(SCc2sc(-c3ccc(C(F)(F)F)c(F)c3)nc2C)ccc1OCC(=O)O [GW0742] (first compound 0.4 µM, partner dose 2 µM)",91.1,68.6,97.5,123,69.7,211,697,167,72.6,–
"Cn1c(Nc2ccc(C(F)(F)F)cc2)nc2cc(Oc3ccnc(-c4ncc(C(F)(F)F)[nH]4)c3)ccc21 + O=C(Oc1ccc([N+](=O)[O-])cc1)N1CCC(C(O)(c2ccc3c(c2)OCO3)c2ccc3c(c2)OCO3)CC1 [JZL184] (first compound 0.08 µM, partner dose 1 µM)",109,486,125,95.1,92.8,278,511,130,58.2,–
"Cc1cc(SCc2sc(-c3ccc(C(F)(F)F)c(F)c3)nc2C)ccc1OCC(=O)O + Oc1nc(-c2ccc(C(F)(F)F)cc2)nc2c1CSCC2 [XAV939] (first compound 2 µM, partner dose 2 µM)",131,144,33.8,75.9,84.3,58.4,57.5,97,208,–
"c1cc(-c2cnn3cc(-c4ccc(OCCN5CCCCC5)cc4)cnc23)ccn1 [Dorsomorphin] + O=C(Oc1ccc([N+](=O)[O-])cc1)N1CCC(C(O)(c2ccc3c(c2)OCO3)c2ccc3c(c2)OCO3)CC1 [JZL184] (first compound 0.4 µM, partner dose 1 µM)",63.3,70.3,64.3,77.9,121,78.5,362,92.5,53.4,–
"CN(c1ncccc1CNc1nc(Nc2ccc3c(c2)CC(=O)N3)ncc1C(F)(F)F)S(C)(=O)=O + N.N.[Cl][Pt][Cl] [cisplatin] (first compound 0.08 µM, partner dose 1.6 µM)",140,159,72.3,317,89.9,119,128,24.7,31.6,138
"Cn1c(=O)n(-c2ccc(C(C)(C)C#N)cc2)c2c3cc(-c4cnc5ccccc5c4)ccc3ncc21 + C[As](C)SC[C@H](NC(=O)CC[C@H](N)C(=O)O)C(=O)NCC(=O)O [Darinaparsin] (first compound 0.004 µM, partner dose 0.4 µM)",78.3,126,117,67.3,138,88.5,258,203,77,124
"C[C@]12O[C@H](C[C@]1(O)CO)n1c3ccccc3c3c4c(c5c6ccccc6n2c5c31)CNC4=O [Lestaurtinib] + Nc1ccn([C@@H]2O[C@H](CO)[C@@H](O)C2(F)F)c(=O)n1 [gemcitabine] (first compound 0.004 µM, partner dose 0.0004 µM)",330,72.7,97.3,96.6,93.8,95.9,73,236,80,63.6
"N.N.[Cl][Pt][Cl] [cisplatin] + C[C@]1(c2nc3c(C(N)=O)cccc3[nH]2)CCCN1 [Veliparib] (first compound 1.6 µM, partner dose 1.4 µM)",79.5,171,153,113,138,132,176,99.5,92.8,62
"C[C@]12O[C@H](C[C@]1(O)CO)n1c3ccccc3c3c4c(c5c6ccccc6n2c5c31)CNC4=O [Lestaurtinib] + N.N.[Cl][Pt][Cl] [cisplatin] (first compound 0.004 µM, partner dose 1.6 µM)",66.9,100,81.2,64.7,110,89.5,59.5,96.6,143,87.1
"CC(C)C[C@H](NC(=O)[C@H](Cc1ccccc1)NC(=O)c1cnccn1)B(O)O [Bortezomib] + N.N.[Cl][Pt][Cl] [cisplatin] (first compound 0.001 µM, partner dose 1.6 µM)",175,91.5,78.1,132,1280,134,324,345,91.1,56.1
"Cn1cc(C2=C(c3cn(C4CCN(Cc5ccccn5)CC4)c4ccccc34)C(=O)NC2=O)c2ccccc21 [Enzastaurin] + C=CCNC1=C2C[C@@H](C)C[C@H](OC)[C@H](O)[C@@H](C)/C=C(\C)[C@H](OC(N)=O)[C@@H](OC)/C=C\C=C(/C)C(=O)NC(=CC1=O)C2=O [Tanespimycin] (first compound 0.8 µM, partner dose 0.002 µM)",66.9,36.9,55.4,128,68.1,43.9,52.8,121,50.9,91.9
"Cn1cc(C2=C(c3cn(C4CCN(Cc5ccccn5)CC4)c4ccccc34)C(=O)NC2=O)c2ccccc21 [Enzastaurin] + COCC[n+]1c2c(n(Cc3cnccn3)c1C)C(=O)c1ccccc1C2=O [YM155] (first compound 0.8 µM, partner dose 0.0004 µM)",93.6,98.7,118,25.9,59.6,138,35.3,305,82.5,111

# Reformatted as tab-separated lines: part of the list above.
SMILES	cleaved PARP positive nuclei fraction (CBRC034) [%]	cleaved PARP positive nuclei fraction (COLO792) [%]	cleaved PARP positive nuclei fraction (COLO800) [%]	cleaved PARP positive nuclei fraction (COLO829) [%]	cleaved PARP positive nuclei fraction (G361) [%]	cleaved PARP positive nuclei fraction (IPC-298) [%]	cleaved PARP positive nuclei fraction (IST-MEL1) [%]	cleaved PARP positive nuclei fraction (LB2518-MEL) [%]	cleaved PARP positive nuclei fraction (LOXIMVI) [%]	cleaved PARP positive nuclei fraction (MEL-HO) [%]
O=C(O)c1ccc(-c2c[nH]c3ncc(-c4ccccc4)cc23)cc1C1CCCC1 + O=C(Oc1ccc([N+](=O)[O-])cc1)N1CCC(C(O)(c2ccc3c(c2)OCO3)c2ccc3c(c2)OCO3)CC1 [JZL184] (first compound 0.16 µM, partner dose 1 µM)	102	48.1	27.8	101	38.9	81.2	55.8	137	43.2	–
CN(NC(=O)CC(=O)NN(C)C(=S)c1ccccc1)C(=S)c1ccccc1 + O=C(Oc1ccc([N+](=O)[O-])cc1)N1CCC(C(O)(c2ccc3c(c2)OCO3)c2ccc3c(c2)OCO3)CC1 [JZL184] (first compound 0.006 µM, partner dose 1 µM)	122	173	238	119	138	55.2	178	92.9	20.5	–
